We go through 56 compounds from PubChem BioAssay AID1487 (National Center for Advancing Translational Sciences (NCATS), 2009).

The other results are listed elsewhere or left out. The main result of the screen is listed elsewhere. These columns were measured beside it and carry no call. The list favours compounds with an active or inconclusive main result. The note in brackets gives the kind of curve behind each potency; many fits are weak.

The assay in a line: qHTS Assay for Modulators of Lamin A Splicing. As to conditions: HeLa LMNA splicing GFP/RFP minigene ratio, 48 h. The method, boiled down: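 S3 HeLa cells stably expressing lamin A-EGFP splicing minigene plus DsRed2, 600 cells/well, 48 h compound exposure at 37C. Laser-scanning cytometry; analysed as GFP (500-530 nm)/RFP (575-640 nm) total intensity ratio; 0.5% DMSO vehicle.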

[1] abbreviates: measured here: GFP splicing reporter channel.
Setting [2] is: measured here: RFP viability control channel.

Broadly, the AC50 is the midpoint of the concentration-response curve, whichever way the signal moves. Take `CCCNC(=O)Cn1cnc2sc(C(=O)N3CCCC(C(=O)OCC)C3)c(C)c2c1=O` (stereo unspecified): the half-maximal activity concentration (AC50) under setting [1] is 0.01 µM [rising, full curve, poor fit].
For `CCOCCn1ccc2c(OCC(=O)Nc3cccc([N+](=O)[O-])c3)cccc2c1=O`, the AC50 under setting [2] was 14.1 µM [falling, single point].
Turning to `C=CC[n+]1c(-c2ccc(OCC)cc2)csc1NNC(=O)Nc1ccccc1`, the half-maximal activity concentration (AC50) under setting [2] was 11.2 µM [rising, partial curve].
Take `O=C(CNC(=O)OCc1ccccc1)Oc1cc2oc(=O)cc(-c3ccccc3)c2cc1Cl`: the AC50 under setting [2] was 20 µM [rising, single point].
As for `COc1ccccc1C(c1nnnn1Cc1ccccc1)N1CCN(c2nc3ccccc3s2)CC1` (stereo unspecified), the half-maximal activity concentration (AC50) runs as follows: under setting [1], 11.2 µM [rising, partial curve, poor fit]; under setting [2], 11.2 µM [rising, partial curve].
On to `CCCCOC(=O)Nc1cccc(C(C)=O)c1`, for which the AC50 under setting [2] was 3.98 µM [rising, single point].
Regarding `CCOC(=O)c1c(-c2ccc(OCC)cc2)csc1NC(=O)CCN1C(=O)c2ccccc2C1=O`, the half-maximal activity concentration (AC50) was 5.62 µM [rising, single point] under setting [1] and 6.31 µM [rising, single point] under setting [2].
In the case of `COc1cc(/C=N/Nc2nc(C)cc(=O)[nH]2)ccc1OC(=O)c1cccnc1`, the half-maximal activity concentration (AC50) under setting [2] is 15.8 µM [rising, single point].
On to `O=C1CSC(=Nc2ccccc2[N+](=O)[O-])N1`, for which the concentration at half-maximal activity (AC50) under setting [2] is 5.62 µM [falling, single point].
Still for that read-out and setting: the same measure for `Cc1cccc(C)c1NC(=O)C(c1ccc([N+](=O)[O-])cc1)N(C)C(=O)c1ccccn1` (stereo unspecified): 2.82 µM [rising, full curve, poor fit].
On to `COc1ccc(-n2c(SCc3ccccc3)nc3c([nH]c4ccccc43)c2=O)cc1`, for which the AC50 under setting [1] is 11.2 µM [falling, partial curve] and the AC50 under setting [2] was 8.91 µM [falling, partial curve].
`Cc1ccccc1NC(=O)c1ccc(Nc2c([N+](=O)[O-])cc([N+](=O)[O-])c3ccccc23)cc1`: the half-maximal activity concentration (AC50) under setting [2] was 7.08 µM [rising, partial curve].
Consider `CCn1c2ccccc2c2cc(CN3CCN(S(C)(=O)=O)CC3)ccc21`, for which the AC50 under setting [2] is 31.6 µM [rising, single point].
As for `OC[C@@H]1CCCN1Cc1nc(-c2cccs2)no1`, the concentration at half-maximal activity (AC50) under setting [1] was 0.794 µM [falling, full curve, poor fit] and the AC50 under setting [2] was 2.24 µM [falling, partial curve].
`Clc1ccc(Cc2noc(CN3CCN(c4ccccc4)CC3)n2)c(Cl)c1`: the AC50 under setting [1] is 17.8 µM [rising, partial curve, poor fit].
Take `Cc1cc(C)cc(C(=O)N2CC(=O)Nc3ccc(Br)cc3C2c2ccccc2)c1` (stereo unspecified): under setting [2], the concentration at half-maximal activity (AC50) was 28.2 µM [falling, partial curve].
For `CCCc1[nH]nc2c1C(C1CC=CCC1)C(C#N)=C(N)O2` (stereo unspecified), the half-maximal activity concentration (AC50) reads like this: under setting [1], 10 µM [rising, partial curve, poor fit]; under setting [2], 11.2 µM [rising, partial curve].
For `O=C(CC(Nc1ccc(F)cc1)c1ccccc1)c1ccccc1` (stereo unspecified), the AC50 under setting [1] is 28.2 µM [falling, single point].
On to `CN1/C(=c2/s/c(=C3/C(=O)N(c4ccccc4)NC3=Nc3ccccc3)n(C)c2=O)C(C)(C)c2ccccc21`, for which the half-maximal activity concentration (AC50) under setting [2] was 17.8 µM [rising, partial curve].
Regarding `COc1cc(NS(=O)(=O)c2ccc(C)cc2C)cc(OC)c1OC`, under setting [2], the concentration at half-maximal activity (AC50) is 6.31 µM [rising, full curve].
Regarding `CCCCN(CC)CCCNC(=O)c1ccc2c(c1)NC(=O)CN2C`, under setting [1], the AC50 is 0.0282 µM [falling, full curve, poor fit].
On the same count and under the same terms, as for `CCOC(=O)c1noc2ncn(CC(=O)Nc3ccccc3OC)c(=O)c12`, the figure is 0.126 µM [falling, partial curve]; as for `COC(=O)c1cc2nc(-c3ccc(OC)c(OC)c3)cc(C(F)(F)F)n2n1`, 12.6 µM [rising, single point].
Turning to `CCCCOc1ccc(-c2nnn(CC(=O)Nc3ncc(CC(=O)OCC)s3)n2)cc1`, under setting [1], the AC50 is 35.5 µM [falling, single point].
With `COc1ccc(C(=O)NC(=S)Nc2ccccc2N2CCOCC2)cc1[N+](=O)[O-]`, the half-maximal activity concentration (AC50) under setting [1] was 1.26 µM [rising, partial curve] and the AC50 under setting [2] is 1.78 µM [rising, partial curve].
Take `CC(C)CCn1c(SCc2cccc(F)c2)nc2ccsc2c1=O`: the AC50 under setting [1] is 35.5 µM [rising, single point].
Regarding `Cn1cc(-c2cc3n(n2)CCC(=O)N3CCCC(=O)NCc2ccccc2Cl)c2ccccc21`, the AC50 under setting [1] is 0.00316 µM [falling, full curve, poor fit].
Take `CC1CCc2nc(NC(=O)CN3CCN(c4ccc(F)cc4)CC3)sc2C1` (stereo unspecified): the AC50 is 20 µM [rising, partial curve] under setting [1] and 12.6 µM [rising, single point] under setting [2].
As for `COc1ccccc1OC[C@H](O)COC(N)=O`, the AC50 is 1 µM [falling, full curve, poor fit] under setting [1] and 1 µM [falling, full curve, poor fit] under setting [2].
Consider `CNc1sc(C(=O)c2ccccc2F)c(N)c1-c1nc2ccccc2s1`, for which the AC50 under setting [1] is 12.6 µM [rising, partial curve] and the AC50 under setting [2] is 22.4 µM [rising, single point].
`O=C(CSCc1c(Cl)cccc1Cl)Nc1ccc2c(c1)OCCO2`: the AC50 under setting [2] was 20 µM [rising, single point].
Regarding `O=C(NCC1CCCO1)C(=Cc1cccc([N+](=O)[O-])c1)C(=O)NCC1CCCO1` (stereo unspecified), the AC50 is, setting by setting: under setting [1], 1.41 µM [rising, full curve, poor fit]; under setting [2], 14.1 µM [rising, partial curve].
In the case of `CCOC(=O)Cc1csc(SCn2nnc3ccccc3c2=O)n1`, under setting [2], the concentration at half-maximal activity (AC50) was 2.82 µM [rising, partial curve].
With `CC(=O)Nc1cc(C(=O)N(C)Cc2ccco2)ccc1Sc1ccc(Cl)cc1`, the AC50 under setting [2] is 35.5 µM [rising, single point].
Turning to `COc1ccccc1C(=O)Nc1nc(-c2ccc3c(c2)OCCO3)cs1`, the AC50 under setting [1] is 1.26 µM [rising, partial curve].
`CCN1CCN(c2cc(SC(C)C)nc(-c3ccc(OC)cc3)n2)CC1`: the concentration at half-maximal activity (AC50) is, setting by setting: under setting [1], 35.5 µM [falling, single point]; under setting [2], 35.5 µM [falling, single point].
`Cc1[nH]n2c(=O)cc(C(C)C)nc2c1-c1ccccc1`: the half-maximal activity concentration (AC50) by setting is: under setting [1], 35.5 µM [rising, single point]; under setting [2], 35.5 µM [rising, single point].
Take `Cc1cc(Cl)ccc1NC(=O)CCS(=O)(=O)c1cc2c(cc1C)NC(=O)CO2`: the AC50 under setting [2] was 0.891 µM [falling, single point].
Take `Cc1ccc2[nH]cc(CCCN3C(=O)c4ccccc4C3=O)c2c1`: under setting [2], the half-maximal activity concentration (AC50) is 22.4 µM [rising, partial curve, poor fit].
With `O=C(CSc1ncnc2scc(-c3ccc(F)cc3)c12)c1ccc2c(c1)OCCO2`, the AC50 was 2 µM [rising, single point] under setting [1] and 11.2 µM [rising, partial curve] under setting [2].
As for `Cc1ccc(NC2=CC(=O)C(=O)c3ccccc32)cc1`, the AC50 reads like this: under setting [1], 35.5 µM [falling, single point]; under setting [2], 35.5 µM [falling, single point].
With `Fc1ccccc1Cn1nnc2c(-n3ccnc3)ncnc21`, the half-maximal activity concentration (AC50) by setting is: under setting [1], 14.1 µM [rising, single point]; under setting [2], 5.01 µM [rising, partial curve].
With `CNc1ncc(Cc2ccccc2)s1`, the half-maximal activity concentration (AC50) under setting [2] is 0.0158 µM [rising, full curve, poor fit].
Consider `COc1ccc(-c2[nH]ncc2/C=N\NS(=O)(=O)c2ccc(Cl)cc2)cc1`, for which the AC50 under setting [2] is 17.8 µM [rising, single point].
As for `O=C(CSc1ccc(Br)cc1)Nc1ccccc1Oc1ccccc1`, the concentration at half-maximal activity (AC50) reads like this: under setting [1], 0.0178 µM [falling, full curve, poor fit]; under setting [2], 2.24 µM [falling, partial curve].
As to `CS(=O)(=O)c1sc(C#N)c2c1C(=O)CC(c1ccccc1)C2` (stereo unspecified), the AC50 under setting [1] is 7.94 µM [falling, partial curve] and the concentration at half-maximal activity (AC50) under setting [2] was 7.94 µM [falling, partial curve].
In the case of `O=C(CN1CCC(O)(c2ccccc2)CC1)Nc1ccc2c(c1)OCCO2`, the half-maximal activity concentration (AC50) under setting [1] is 0.00282 µM [falling, full curve, poor fit].
Consider `O=c1cc(-c2ccccc2Cl)oc2cc(O)cc(O)c12`, for which the AC50 under setting [1] was 0.0891 µM [falling, full curve, poor fit].
For `COc1ccccc1NC(=S)N(CCCN1CCOCC1)Cc1cn(C)c2ccccc12`, the concentration at half-maximal activity (AC50) reads like this: under setting [1], 14.1 µM [rising, single point]; under setting [2], 22.4 µM [rising, single point].
Take `CCOC(=O)c1c(NC(=S)NCCc2ccccc2)sc2c1CC(C(C)C)OC2` (stereo unspecified): under setting [2], the AC50 is 5.62 µM [rising, single point].
Take `CCCOc1cccc(OCC(=O)Nc2nc3ccccc3[nH]2)c1`: the AC50 under setting [1] was 20 µM [rising, single point].
Turning to `COc1ccc(NC(=O)CSc2nc3ccsc3c(=O)n2CCCCCC(=O)O)cc1`, the AC50 under setting [1] is 2.24 µM [rising, partial curve, poor fit].
For the compound `Cc1ccc(N(CN2CCCC2=O)C(=O)c2ccccc2)cc1`, the AC50 under setting [1] was 4.47 µM [falling, single point].
Regarding `CN1CCC(N(C)C(=S)Nc2ccc(SC(F)F)cc2)CC1`, the AC50 was 12.6 µM [rising, single point] under setting [1] and 12.6 µM [rising, partial curve] under setting [2].
Turning to `CCn1c(SCc2nc3ccccc3nc2C)nnc1-c1cccs1`, the AC50 under setting [2] was 35.5 µM [rising, single point].
In the case of `O=C(NO)c1ccccc1C(F)(F)F`, the AC50 reads like this: under setting [1], 35.5 µM [falling, single point]; under setting [2], 35.5 µM [falling, single point].
